# Results from patent US20220125744A1.
# Protein sequences, listed by entry. Tags and fused reporters are not part of them.
# UniProt Q92731: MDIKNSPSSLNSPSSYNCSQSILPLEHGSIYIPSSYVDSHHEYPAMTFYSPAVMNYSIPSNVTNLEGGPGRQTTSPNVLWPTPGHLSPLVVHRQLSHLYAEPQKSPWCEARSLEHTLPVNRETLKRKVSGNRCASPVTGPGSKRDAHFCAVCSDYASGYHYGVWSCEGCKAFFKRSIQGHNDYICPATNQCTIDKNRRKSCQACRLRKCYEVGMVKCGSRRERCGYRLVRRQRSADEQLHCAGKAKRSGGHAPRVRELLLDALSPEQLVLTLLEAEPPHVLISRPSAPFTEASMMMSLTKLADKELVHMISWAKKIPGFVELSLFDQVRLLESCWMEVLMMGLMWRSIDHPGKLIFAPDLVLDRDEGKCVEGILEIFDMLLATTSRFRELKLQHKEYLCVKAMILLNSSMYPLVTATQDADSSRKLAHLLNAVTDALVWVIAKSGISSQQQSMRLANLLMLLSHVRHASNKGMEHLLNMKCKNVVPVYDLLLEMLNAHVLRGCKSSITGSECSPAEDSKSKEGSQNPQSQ
# These are yes or no findings as the source states them, for the method shown. Some binding calls cover weakened binding; strength is not graded here.
# How the values were obtained:
# TP73, endogenous [1] = target: T1, TP73, endogenous (UniProt O15350); experiment: in situ PLA with anti-FLAG and anti-TP73 antibodies, MDA-MB-231 and SK-BR-3 (FIGS. 16B-C)
# T1 sequence (looked up): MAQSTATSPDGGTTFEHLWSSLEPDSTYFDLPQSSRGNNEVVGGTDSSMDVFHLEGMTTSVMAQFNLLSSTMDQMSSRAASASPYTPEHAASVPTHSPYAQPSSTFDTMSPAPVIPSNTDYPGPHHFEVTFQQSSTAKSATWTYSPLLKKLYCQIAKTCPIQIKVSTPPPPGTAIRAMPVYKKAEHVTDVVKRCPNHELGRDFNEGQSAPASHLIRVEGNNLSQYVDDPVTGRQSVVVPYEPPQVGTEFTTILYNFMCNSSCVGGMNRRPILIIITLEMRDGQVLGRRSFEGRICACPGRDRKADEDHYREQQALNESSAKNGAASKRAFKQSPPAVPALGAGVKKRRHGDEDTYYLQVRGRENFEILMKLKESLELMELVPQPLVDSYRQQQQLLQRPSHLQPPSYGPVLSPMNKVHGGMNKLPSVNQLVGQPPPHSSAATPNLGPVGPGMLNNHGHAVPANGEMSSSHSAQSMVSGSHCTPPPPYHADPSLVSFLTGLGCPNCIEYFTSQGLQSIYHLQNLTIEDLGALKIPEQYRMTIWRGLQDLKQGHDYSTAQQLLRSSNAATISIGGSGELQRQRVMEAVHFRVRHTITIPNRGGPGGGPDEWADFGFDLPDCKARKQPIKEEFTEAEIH
# TP73, endogenous [2] = target: T1, TP73, endogenous; experiment: in situ PLA, MDA-MB-231 (FIG. 16A)
"binding (TP73, endogenous [1])","binding (TP73, endogenous [2])",Substance
binds,,N-terminally FLAG-tagged human ESR2 full-length (from UniProt Q92731 1-530) (receptor)
,binds,"estrogen receptor-beta (ESR2), endogenous (from UniProt Q92731 1-530)"
